PubChem BioAssay AID686938, Drosophila RNAi Screening Center – 2013
The screen tested about 23,000 reagents; shown is an unselected part of those that have a named target and a result. Of all reagents, 75 (0.33%) got an active call. 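Raw plate signals without normalisation; calls rest on plate z-scores that were not deposited; ratio present for only 364 wells.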 Unmarked entries are inactive. Names joined by + are all predicted targets of the reagent. Not stated in the record: the dose of the treatment.

Purpose: 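Looking for CRAC channel components and the factors controlling them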 (primary screen)
System: Drosophila S2R+ cells
Reagents: long dsRNA against Drosophila genes, about 0.25 µg dsRNA per well, roughly 10,000 cells
Timing: 5 days of knock-down before the calcium assay
Treatment: thapsigargin (SERCA pump blocker) to empty calcium stores; entry signal taken 4 min after adding it
Measurement: 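Duplicate raw fluo-4 intensities per well from a plate reader, at rest and four minutes after thapsigargin emptied calcium stores; entry-to-rest ratio filled for only some wells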
Reading the numbers: calcium entry signal: higher = stronger calcium signal after store depletion; resting calcium signal: higher = higher resting calcium signal
Rule for the call: 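Called when the plate z-score of the entry-to-rest ratio, mean of duplicates, falls below −3; wells with low overall dye signal (Fmax z below −2) or more than five off-targets excluded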
Calls: active = strongly reduced calcium entry; inactive = no strong reduction

Target gene	amplicon	calcium entry signal, replicate 1 (fluorescence units)	calcium entry signal, replicate 2 (fluorescence units)	resting calcium signal, replicate 1 (fluorescence units)	resting calcium signal, replicate 2 (fluorescence units)
CG30487	DRSC05377	4.57e7	5.45e7	2.33e7	2.23e7
stol	DRSC01956	5.18e7	3.61e7	2.25e7	1.78e7
CG14610 + asRNA:CR42738	DRSC12554	4.30e7	4.44e7	2.13e7	2.14e7
BomBc3	DRSC15873	4.06e7	5.01e7	5.60e7	2.05e7
Nop60B	DRSC04627	2.81e7		1.60e7	
mthl7	DRSC10852	3.12e7	3.53e7	1.42e7	1.61e7
RpS7	DRSC15394	1.08e7	8.64e6	7.92e6	6.46e6
Vinc	DRSC18728	4.63e7	4.44e7	2.10e7	2.16e7
m-cup	DRSC14430	3.02e7	5.29e7	1.51e7	7.02e7
toe	DRSC09174	3.61e7	4.56e7	2.09e7	1.96e7
toe	DRSC09783	3.34e7	3.51e7	1.79e7	1.49e7
Scgbeta	DRSC15854	4.00e7	4.11e7	1.92e7	2.00e7
fz	DRSC11348	3.80e7	4.38e7	1.69e7	1.91e7

Ordered by “calcium entry signal, replicate 1 (fluorescence units)” (lowest first): 2 of the entries above.
Target gene	amplicon	calcium entry signal, replicate 1 (fluorescence units)	calcium entry signal, replicate 2 (fluorescence units)	resting calcium signal, replicate 1 (fluorescence units)	resting calcium signal, replicate 2 (fluorescence units)
Nop60B	DRSC04627	2.81e7		1.60e7	
mthl7	DRSC10852	3.12e7	3.53e7	1.42e7	1.61e7

Further reagents follow.
Target gene	amplicon	calcium entry signal, replicate 1 (fluorescence units)	calcium entry signal, replicate 2 (fluorescence units)	resting calcium signal, replicate 1 (fluorescence units)	resting calcium signal, replicate 2 (fluorescence units)
CG43446	DRSC13458	5.79e7	3.74e7	2.80e7	1.69e7
amon	DRSC13784	3.86e7	3.60e7	1.90e7	1.76e7
amon	DRSC16900	2.72e7	5.01e7	1.44e7	2.60e7
CG17999	DRSC04300	3.99e7		2.03e7	
Syx7	DRSC11763	2.56e7	4.57e7	1.44e7	3.02e7
Hacd2	DRSC03181	3.32e7	2.24e7	1.43e7	1.04e7
Iru	DRSC14457	3.58e7	3.64e7	1.59e7	1.72e7
CG13931	DRSC08400	4.34e7	4.65e7	2.30e7	2.21e7
Zpr1	DRSC18432	2.80e7	3.41e7	1.43e7	1.58e7
betaTub65B	DRSC11393	2.88e7	5.04e7	1.45e7	2.31e7
Bet5	DRSC14600	2.99e7	3.07e7	1.54e7	1.49e7
